Assay results published in patent publication US8710233B2 (Gruenenthal GmbH, priority 2005, dated 2014).
At least one structure is not confirmed: it was looked up by name or label, or the drawing left a doubt.

Protein sequences, listed by entry. Tags and fused reporters are not part of them.
UniProt Q8NER1, whole entry: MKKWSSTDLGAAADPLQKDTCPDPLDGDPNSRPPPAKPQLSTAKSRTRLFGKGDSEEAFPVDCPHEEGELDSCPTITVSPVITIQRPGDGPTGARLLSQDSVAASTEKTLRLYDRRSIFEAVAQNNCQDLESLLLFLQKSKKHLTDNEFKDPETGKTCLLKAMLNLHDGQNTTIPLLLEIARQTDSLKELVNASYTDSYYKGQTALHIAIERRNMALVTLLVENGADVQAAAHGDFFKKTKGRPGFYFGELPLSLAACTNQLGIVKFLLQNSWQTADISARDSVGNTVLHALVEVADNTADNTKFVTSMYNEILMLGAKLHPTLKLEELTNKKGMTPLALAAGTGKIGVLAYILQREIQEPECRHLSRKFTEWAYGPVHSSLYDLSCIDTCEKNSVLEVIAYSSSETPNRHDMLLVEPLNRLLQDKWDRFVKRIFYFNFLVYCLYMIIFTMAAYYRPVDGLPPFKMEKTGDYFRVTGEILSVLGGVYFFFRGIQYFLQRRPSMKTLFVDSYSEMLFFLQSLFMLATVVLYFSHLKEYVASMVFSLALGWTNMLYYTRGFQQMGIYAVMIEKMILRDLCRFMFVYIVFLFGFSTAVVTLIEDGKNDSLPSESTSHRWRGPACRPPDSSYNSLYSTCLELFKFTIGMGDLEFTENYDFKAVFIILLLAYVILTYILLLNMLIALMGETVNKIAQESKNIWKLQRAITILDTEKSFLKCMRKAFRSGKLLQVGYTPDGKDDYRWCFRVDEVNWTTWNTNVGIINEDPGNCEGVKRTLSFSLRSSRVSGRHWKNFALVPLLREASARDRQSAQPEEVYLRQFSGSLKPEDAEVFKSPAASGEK

Target: VR1/TRPV1 receptor (Homo sapiens, UniProt Q8NER1)
Assay: IC50 (human) after pH stimulus
Format: cell-based
Details: @ 1 μM; ne = no effect

| SMILES | inhibition in percent, IC50 (human) after pH stimulus |
| --- | --- |
| CC1CCN(c2nc(-c3ccc(F)cc3)ccc2CNC(=O)C(C)c2ccc(NS(C)(=O)=O)c(F)c2)CC1 (stereo not drawn) [Example 184, 2-(3-fluoro-4-methylsulfonamido-phenyl)-N-[6′-(4-fluoro-phenyl)-4-methyl-3,4,5,6-tetrahydro-2H-[1,2′]bipyridinyl-3′-ylmethyl]-propionamide] | ne @ 1 μM |
| CC1CCN(c2nc(C(F)(F)F)ccc2CNC(=O)C(C)c2ccc(NS(N)(=O)=O)c(F)c2)CC1 (stereo not drawn) [Example 313, 2-(3-fluoro-4-aminosulfonylamino-phenyl)-N-(4-methyl-6′-trifluoromethyl-3,4,5,6-tetrahydro-2H-[1,2′]bipyridinyl-3′-ylmethyl)-propionamide] | ne @ 1 μM |
| CCOC(=O)c1cc(CNC(=O)C(C)c2ccc(NS(C)(=O)=O)c(F)c2)c(N2CCC(C)CC2)cc1C(F)(F)F (stereo not drawn) [Example 351, 5-{[2-(3-fluoro-4-methylsulfonamido-phenyl)-propionylamino]-methyl}-4-(4-methyl-piperidin-1-yl)-2-trifluoromethyl-benzoic acid ethyl ester] | ne @ 1 μM |
